Reference: paper PMC10092763

By UniProt entry, the sequences of proteins in these tests, tags left out.
UniProt P50750: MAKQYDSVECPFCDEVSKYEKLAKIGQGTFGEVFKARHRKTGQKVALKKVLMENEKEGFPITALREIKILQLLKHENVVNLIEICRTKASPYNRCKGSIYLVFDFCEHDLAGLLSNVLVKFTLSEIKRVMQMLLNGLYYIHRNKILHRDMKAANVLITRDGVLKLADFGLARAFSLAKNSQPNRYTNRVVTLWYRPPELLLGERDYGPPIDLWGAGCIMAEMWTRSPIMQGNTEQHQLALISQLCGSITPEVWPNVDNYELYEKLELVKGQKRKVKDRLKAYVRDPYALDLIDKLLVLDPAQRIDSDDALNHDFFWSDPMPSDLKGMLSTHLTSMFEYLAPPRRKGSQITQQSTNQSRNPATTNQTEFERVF
UniProt P42568: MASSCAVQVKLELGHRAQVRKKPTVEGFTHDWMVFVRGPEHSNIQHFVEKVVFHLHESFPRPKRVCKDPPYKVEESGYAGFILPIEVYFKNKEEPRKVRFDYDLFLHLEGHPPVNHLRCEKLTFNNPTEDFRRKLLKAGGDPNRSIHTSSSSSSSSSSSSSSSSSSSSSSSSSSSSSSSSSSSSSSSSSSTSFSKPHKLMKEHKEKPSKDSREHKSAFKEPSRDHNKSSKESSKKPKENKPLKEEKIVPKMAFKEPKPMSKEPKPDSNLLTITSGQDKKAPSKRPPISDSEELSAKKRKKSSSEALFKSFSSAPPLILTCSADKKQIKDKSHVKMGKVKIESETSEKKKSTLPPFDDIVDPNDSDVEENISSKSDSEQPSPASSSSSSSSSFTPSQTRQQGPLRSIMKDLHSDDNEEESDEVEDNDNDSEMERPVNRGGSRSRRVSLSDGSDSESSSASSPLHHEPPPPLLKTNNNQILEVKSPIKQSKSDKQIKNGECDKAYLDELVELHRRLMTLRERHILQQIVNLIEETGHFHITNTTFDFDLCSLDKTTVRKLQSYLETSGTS
UniProt Q02962: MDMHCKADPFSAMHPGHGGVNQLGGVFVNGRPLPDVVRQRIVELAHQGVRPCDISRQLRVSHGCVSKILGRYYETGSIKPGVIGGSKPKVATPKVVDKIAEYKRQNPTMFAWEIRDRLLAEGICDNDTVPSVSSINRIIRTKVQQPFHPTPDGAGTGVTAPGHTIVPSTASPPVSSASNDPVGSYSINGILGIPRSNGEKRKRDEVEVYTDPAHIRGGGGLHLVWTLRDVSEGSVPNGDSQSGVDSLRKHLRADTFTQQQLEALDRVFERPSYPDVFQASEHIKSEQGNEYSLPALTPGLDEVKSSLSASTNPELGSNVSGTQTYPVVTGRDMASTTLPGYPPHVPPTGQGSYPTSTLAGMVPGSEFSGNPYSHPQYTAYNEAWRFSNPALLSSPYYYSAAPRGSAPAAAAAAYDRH

T1: FLAG-tagged AFF4 (human) (UniProt Q9UHB7)
T1 sequence: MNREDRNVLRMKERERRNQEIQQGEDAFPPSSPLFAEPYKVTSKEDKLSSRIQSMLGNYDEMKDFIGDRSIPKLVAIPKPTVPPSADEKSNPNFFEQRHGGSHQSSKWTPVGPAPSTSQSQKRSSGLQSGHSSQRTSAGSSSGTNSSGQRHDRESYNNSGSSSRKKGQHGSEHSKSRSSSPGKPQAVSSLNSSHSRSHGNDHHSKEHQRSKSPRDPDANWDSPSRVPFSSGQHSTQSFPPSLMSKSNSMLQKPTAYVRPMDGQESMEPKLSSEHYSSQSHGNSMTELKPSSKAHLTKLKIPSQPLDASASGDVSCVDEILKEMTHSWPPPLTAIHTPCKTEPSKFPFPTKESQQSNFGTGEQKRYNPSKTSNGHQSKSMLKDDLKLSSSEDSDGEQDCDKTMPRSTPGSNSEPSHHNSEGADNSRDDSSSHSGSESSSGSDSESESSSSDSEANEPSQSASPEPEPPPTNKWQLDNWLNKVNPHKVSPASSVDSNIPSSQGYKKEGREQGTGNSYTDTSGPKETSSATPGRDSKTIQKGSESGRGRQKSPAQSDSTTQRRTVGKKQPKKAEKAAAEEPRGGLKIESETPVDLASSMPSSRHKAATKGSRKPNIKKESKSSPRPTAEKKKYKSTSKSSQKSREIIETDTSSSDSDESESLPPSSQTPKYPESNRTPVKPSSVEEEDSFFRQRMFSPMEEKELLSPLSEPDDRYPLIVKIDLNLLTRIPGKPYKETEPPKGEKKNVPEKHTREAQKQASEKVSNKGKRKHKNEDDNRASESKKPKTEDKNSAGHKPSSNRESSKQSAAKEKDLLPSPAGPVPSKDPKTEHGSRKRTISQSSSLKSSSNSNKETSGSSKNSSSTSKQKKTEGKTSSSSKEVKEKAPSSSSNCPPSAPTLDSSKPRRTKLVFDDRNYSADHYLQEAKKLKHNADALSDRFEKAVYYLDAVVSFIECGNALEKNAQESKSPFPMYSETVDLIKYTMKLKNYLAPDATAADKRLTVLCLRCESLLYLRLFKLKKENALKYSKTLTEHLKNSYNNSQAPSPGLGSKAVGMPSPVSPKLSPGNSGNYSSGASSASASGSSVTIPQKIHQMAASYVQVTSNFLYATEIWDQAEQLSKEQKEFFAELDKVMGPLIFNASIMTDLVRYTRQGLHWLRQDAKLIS

B1: MLLT1 (protein, UniProt Q03111 1-559)
chain: MDNQCTVQVRLELGHRAQLRKKPTTEGFTHDWMVFVRGPEQCDIQHFVEKVVFWLHDSFPKPRRVCKEPPYKVEESGYAGFIMPIEVHFKNKEEPRKVCFTYDLFLNLEGNPPVNHLRCEKLTFNNPTTEFRYKLLRAGGVMVMPEGADTVSRPSPDYPMLPTIPLSAFSDPKKTKPSHGSKDANKESSKTSKPHKVTKEHRERPRKDSESKSSSKELEREQAKSSKDTSRKLGEGRLPKEEKAPPPKAAFKEPKMALKETKLESTSPKGGPPPPPPPPPRASSKRPATADSPKPSAKKQKKSSSKGSRSAPGTSPRTSSSSSFSDKKPAKDKSSTRGEKVKAESEPREAKKALEVEESNSEDEASFKSESAQSSPSNSSSSSDSSSDSDFEPSQNHSQGPLRSMVEDLQSEESDEDDSSSGEEAAGKTNPGRDSRLSFSDSESDNSADSSLPSREPPPPQKPPPPNSKVSGRRSPESCSKPEKILKKGTYDKAYTDELVELHRRLMALRERNVLQQIVNLIEETGHFNVTNTTFDFDLFSLDETTVRKLQSCLEAVAT

Target: T1, FLAG-tagged AFF4 (human)
Assay: affinity purification with mass spectrometry; FLAG-AFF4 immunoprecipitated from transfected PANC-1 or BxPC-3 cells, FLAG/pCDH empty vector as control; associated proteins identified by LC-MS/MS

binding, binds:
CDK9 (from UniProt P50750 1-372) (enzyme)
MLLT3 (from UniProt P42568 1-568)
PAX2 (from UniProt Q02962 1-417)
B1

No constants are given. Whether binding was seen depends on the method and setting. Binding seen in cells or lysates may run through a third protein. These calls come from enrichment with a bait or labelling near it, and not all partners need be listed. Sequences can lack the tags named with a protein.
